These results are taken from article PMC9855889.

Protein sequences, listed by entry. Tags and fused reporters are not part of them. Lines headed by an entry give the natural chain unless they say otherwise; changes in a name come on top.
UniProt P32589: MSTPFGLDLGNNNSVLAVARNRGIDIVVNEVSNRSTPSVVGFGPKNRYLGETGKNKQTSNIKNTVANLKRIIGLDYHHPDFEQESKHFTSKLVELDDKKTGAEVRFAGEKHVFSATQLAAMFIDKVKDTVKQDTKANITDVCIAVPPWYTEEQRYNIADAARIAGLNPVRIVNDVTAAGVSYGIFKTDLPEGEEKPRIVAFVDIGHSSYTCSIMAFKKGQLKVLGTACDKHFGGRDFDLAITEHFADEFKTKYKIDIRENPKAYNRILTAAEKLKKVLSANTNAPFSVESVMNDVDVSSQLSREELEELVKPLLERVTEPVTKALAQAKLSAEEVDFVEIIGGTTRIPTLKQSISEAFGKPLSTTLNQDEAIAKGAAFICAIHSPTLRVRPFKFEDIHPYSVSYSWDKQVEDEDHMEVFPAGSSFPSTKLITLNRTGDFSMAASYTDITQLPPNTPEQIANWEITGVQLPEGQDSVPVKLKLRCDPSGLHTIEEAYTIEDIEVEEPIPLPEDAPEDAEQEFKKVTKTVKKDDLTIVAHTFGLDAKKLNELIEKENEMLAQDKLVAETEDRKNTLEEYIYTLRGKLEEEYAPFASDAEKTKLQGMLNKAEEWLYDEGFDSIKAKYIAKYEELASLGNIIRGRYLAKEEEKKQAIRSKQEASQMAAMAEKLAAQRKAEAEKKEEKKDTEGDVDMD

No constants are given. Whether binding was seen depends on the method and setting. Sequences can lack the tags named with a protein.

The experiment addresses T1, α4-HA (Pre6-HA) (S. cerevisiae) (UniProt P40303).
T1 sequence: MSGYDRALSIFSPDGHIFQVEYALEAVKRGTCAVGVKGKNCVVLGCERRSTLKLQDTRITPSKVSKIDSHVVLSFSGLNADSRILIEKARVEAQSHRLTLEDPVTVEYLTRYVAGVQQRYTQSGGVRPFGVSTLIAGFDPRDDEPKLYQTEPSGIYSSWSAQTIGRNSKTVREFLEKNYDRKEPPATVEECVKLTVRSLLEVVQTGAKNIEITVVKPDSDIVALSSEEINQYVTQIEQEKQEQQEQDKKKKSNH
Description: native gel or EMSA; crude yeast extracts in 26S buffer (2 mM ATP), 4-15% native PAGE, anti-HA blot of the HA-tagged α subunit; +C bands compared in WT, sse1∆, sse1-G205D and ssa mutant strains; ATP or ADP (1 or 2 mM) added to ATP-free extracts restored the +C bands. On the technique in general: In EMSA bound probe runs differently from free probe, usually more slowly.

Consider Sse1-G205D (from UniProt P32589), for which the binding result is given as “no binding”.
